From patent US20220041754A1
No constants are given. Whether binding was seen depends on the method and setting. Some results given as binding are weak or reduced against the parent protein; the word gives no strength.

Target: anti-CD70 CAR of SEQ ID NO: 6
Assay: flow cytometry on anti-CD70 CAR T cells

- binding: binds
B1: recombinant 20H05-2D09 antibody (antibody, mouse IgG1, kappa, V domains shown)
VH: QIQLVQSGPELKKPGETVKISCKASGYTFTNYGMHWVKQAPGKVLKWMGWINTYSGVPTYPDDFKGRFAFSLETSASTASLQINNLKNEDTATYFCATERLRGWFPFWGQGTLVTVSA
VL: QIVLTQSPAIMSASPGEKVTISCSASSSVSYMYWYQQKPGSSPKPWIYRTSNLASGVPARFSGSGSGTSYSLTISSMEAEDAATYYCQQYHSYPPTFGGGTKLEIKR
